Data from PMC10564934.
These are yes or no findings as the source states them, for the method shown. In cells and extracts the contact can be indirect. A result given as binding can be weak or reduced; the word gives no strength. For some of these results: Where a sequence is shown, tags or fusion partners need not be part of it. Blank lines part the entries; values can stand above or below the molecule they belong to.

By UniProt entry, the sequences of proteins in these tests, tags left out. Where a name states a change or a piece, a line headed by the entry shows the natural chain unless it says otherwise.
UniProt P35613: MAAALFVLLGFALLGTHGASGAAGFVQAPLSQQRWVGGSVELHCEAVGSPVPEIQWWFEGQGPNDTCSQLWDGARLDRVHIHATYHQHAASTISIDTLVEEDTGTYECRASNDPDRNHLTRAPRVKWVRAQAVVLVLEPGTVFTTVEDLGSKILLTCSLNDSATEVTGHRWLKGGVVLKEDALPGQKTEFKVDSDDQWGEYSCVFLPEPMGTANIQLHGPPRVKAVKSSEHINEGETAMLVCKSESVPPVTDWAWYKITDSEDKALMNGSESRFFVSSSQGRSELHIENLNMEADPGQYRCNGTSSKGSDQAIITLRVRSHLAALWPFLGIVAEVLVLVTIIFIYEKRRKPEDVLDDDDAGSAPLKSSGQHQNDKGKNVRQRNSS

Assays:
[1] = target: T1, MCT4 (monocarboxylate transporter 4), endogenous (human (endogenous in A549 and H1752)) (UniProt O15427); assay: proximity ligation; PLA of MCT4 and CD147 in cells with SYVN1 knockdown; cells and antibodies not named
T1 sequence: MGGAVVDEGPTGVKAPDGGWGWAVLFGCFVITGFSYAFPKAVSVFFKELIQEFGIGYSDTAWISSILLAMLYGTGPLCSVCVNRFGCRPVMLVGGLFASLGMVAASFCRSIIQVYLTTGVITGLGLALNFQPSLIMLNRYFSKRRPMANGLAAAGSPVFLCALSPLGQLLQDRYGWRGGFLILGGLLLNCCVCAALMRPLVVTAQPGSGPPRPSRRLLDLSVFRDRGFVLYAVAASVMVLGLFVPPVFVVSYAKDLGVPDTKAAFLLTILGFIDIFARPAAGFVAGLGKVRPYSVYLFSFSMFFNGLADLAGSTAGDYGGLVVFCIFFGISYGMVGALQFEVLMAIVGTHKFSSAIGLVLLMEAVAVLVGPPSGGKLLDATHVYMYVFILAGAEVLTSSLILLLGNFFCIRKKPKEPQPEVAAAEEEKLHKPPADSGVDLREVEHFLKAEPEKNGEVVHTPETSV

[2] = target: T2, Flag-tagged MCT4 (monocarboxylate transporter 4), full length (UniProt O15427); assay: proximity ligation; PLA in transfected HEK293T cells with anti-Flag and anti-His antibodies, with or without SYVN1 overexpression
T2 sequence: T1 sequence

[3] = target: T2, Flag-tagged MCT4 (monocarboxylate transporter 4), full length; assay: co-IP; HEK293T transfected with Flag-MCT4 and tagged CD147, with or without SYVN1 overexpression, 48 h; IP with anti-Flag antibody, immunoblot
tagged CD147 = tagged CD147 (UniProt P35613); assay: pull-down; HEK293T transfected with Flag-MCT4 and tagged CD147, with or without SYVN1 overexpression, 48 h; lysates pulled down by Ni-NTA agarose beads, immunoblot

- binding [1]: binds
Molecule: CD147 in cells with SYVN1 knockdown (from UniProt P35613-2)

- binding [2]: binds
- binding [3]: binds
Molecule: tagged CD147 (from UniProt P35613-2)

- binding (tagged CD147): binds
B1: Flag-tagged MCT4 (monocarboxylate transporter 4), full length (protein, UniProt O15427 1-465)
chain: T1 sequence
